The supplement of paper PMC10849652
Some of the results follow.

Sequences of proteins named here, by UniProt entry; tags and fusion partners are left off. A change or cut given only in a name is not applied to a line headed by its entry.
UniProt Q9UNX4: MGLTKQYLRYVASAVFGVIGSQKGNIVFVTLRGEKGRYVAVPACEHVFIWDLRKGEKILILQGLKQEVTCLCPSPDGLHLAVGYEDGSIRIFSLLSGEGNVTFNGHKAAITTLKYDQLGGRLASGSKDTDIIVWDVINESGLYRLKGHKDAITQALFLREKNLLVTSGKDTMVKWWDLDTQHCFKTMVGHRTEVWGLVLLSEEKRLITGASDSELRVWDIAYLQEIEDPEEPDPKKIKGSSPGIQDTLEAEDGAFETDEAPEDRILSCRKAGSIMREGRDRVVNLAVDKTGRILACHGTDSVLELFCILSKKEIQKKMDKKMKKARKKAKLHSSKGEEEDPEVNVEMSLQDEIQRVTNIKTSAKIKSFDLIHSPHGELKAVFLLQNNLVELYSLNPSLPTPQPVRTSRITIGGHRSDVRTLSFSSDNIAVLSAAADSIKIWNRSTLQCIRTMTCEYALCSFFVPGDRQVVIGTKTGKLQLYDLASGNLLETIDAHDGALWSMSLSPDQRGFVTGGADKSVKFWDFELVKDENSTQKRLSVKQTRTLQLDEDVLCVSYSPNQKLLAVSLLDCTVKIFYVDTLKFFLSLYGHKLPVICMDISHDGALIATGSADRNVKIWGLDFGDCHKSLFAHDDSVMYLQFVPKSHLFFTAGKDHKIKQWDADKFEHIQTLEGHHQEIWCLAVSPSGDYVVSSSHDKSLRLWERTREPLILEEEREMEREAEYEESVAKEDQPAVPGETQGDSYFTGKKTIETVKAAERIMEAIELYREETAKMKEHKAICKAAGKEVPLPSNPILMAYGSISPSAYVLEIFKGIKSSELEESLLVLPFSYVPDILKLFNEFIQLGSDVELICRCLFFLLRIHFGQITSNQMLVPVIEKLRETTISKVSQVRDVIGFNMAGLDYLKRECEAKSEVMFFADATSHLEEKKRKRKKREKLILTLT
UniProt P51811: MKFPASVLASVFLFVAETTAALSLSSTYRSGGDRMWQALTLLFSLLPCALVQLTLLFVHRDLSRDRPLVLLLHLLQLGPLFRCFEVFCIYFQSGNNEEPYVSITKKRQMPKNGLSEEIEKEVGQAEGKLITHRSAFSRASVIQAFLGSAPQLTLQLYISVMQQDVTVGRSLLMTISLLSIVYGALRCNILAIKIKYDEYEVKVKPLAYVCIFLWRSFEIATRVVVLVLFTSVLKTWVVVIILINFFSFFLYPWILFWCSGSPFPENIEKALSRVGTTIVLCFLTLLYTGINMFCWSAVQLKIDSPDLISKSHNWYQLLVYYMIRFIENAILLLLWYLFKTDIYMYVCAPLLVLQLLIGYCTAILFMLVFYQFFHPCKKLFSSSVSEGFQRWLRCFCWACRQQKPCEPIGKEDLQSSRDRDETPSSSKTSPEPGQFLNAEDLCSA
UniProt Q7Z7G8: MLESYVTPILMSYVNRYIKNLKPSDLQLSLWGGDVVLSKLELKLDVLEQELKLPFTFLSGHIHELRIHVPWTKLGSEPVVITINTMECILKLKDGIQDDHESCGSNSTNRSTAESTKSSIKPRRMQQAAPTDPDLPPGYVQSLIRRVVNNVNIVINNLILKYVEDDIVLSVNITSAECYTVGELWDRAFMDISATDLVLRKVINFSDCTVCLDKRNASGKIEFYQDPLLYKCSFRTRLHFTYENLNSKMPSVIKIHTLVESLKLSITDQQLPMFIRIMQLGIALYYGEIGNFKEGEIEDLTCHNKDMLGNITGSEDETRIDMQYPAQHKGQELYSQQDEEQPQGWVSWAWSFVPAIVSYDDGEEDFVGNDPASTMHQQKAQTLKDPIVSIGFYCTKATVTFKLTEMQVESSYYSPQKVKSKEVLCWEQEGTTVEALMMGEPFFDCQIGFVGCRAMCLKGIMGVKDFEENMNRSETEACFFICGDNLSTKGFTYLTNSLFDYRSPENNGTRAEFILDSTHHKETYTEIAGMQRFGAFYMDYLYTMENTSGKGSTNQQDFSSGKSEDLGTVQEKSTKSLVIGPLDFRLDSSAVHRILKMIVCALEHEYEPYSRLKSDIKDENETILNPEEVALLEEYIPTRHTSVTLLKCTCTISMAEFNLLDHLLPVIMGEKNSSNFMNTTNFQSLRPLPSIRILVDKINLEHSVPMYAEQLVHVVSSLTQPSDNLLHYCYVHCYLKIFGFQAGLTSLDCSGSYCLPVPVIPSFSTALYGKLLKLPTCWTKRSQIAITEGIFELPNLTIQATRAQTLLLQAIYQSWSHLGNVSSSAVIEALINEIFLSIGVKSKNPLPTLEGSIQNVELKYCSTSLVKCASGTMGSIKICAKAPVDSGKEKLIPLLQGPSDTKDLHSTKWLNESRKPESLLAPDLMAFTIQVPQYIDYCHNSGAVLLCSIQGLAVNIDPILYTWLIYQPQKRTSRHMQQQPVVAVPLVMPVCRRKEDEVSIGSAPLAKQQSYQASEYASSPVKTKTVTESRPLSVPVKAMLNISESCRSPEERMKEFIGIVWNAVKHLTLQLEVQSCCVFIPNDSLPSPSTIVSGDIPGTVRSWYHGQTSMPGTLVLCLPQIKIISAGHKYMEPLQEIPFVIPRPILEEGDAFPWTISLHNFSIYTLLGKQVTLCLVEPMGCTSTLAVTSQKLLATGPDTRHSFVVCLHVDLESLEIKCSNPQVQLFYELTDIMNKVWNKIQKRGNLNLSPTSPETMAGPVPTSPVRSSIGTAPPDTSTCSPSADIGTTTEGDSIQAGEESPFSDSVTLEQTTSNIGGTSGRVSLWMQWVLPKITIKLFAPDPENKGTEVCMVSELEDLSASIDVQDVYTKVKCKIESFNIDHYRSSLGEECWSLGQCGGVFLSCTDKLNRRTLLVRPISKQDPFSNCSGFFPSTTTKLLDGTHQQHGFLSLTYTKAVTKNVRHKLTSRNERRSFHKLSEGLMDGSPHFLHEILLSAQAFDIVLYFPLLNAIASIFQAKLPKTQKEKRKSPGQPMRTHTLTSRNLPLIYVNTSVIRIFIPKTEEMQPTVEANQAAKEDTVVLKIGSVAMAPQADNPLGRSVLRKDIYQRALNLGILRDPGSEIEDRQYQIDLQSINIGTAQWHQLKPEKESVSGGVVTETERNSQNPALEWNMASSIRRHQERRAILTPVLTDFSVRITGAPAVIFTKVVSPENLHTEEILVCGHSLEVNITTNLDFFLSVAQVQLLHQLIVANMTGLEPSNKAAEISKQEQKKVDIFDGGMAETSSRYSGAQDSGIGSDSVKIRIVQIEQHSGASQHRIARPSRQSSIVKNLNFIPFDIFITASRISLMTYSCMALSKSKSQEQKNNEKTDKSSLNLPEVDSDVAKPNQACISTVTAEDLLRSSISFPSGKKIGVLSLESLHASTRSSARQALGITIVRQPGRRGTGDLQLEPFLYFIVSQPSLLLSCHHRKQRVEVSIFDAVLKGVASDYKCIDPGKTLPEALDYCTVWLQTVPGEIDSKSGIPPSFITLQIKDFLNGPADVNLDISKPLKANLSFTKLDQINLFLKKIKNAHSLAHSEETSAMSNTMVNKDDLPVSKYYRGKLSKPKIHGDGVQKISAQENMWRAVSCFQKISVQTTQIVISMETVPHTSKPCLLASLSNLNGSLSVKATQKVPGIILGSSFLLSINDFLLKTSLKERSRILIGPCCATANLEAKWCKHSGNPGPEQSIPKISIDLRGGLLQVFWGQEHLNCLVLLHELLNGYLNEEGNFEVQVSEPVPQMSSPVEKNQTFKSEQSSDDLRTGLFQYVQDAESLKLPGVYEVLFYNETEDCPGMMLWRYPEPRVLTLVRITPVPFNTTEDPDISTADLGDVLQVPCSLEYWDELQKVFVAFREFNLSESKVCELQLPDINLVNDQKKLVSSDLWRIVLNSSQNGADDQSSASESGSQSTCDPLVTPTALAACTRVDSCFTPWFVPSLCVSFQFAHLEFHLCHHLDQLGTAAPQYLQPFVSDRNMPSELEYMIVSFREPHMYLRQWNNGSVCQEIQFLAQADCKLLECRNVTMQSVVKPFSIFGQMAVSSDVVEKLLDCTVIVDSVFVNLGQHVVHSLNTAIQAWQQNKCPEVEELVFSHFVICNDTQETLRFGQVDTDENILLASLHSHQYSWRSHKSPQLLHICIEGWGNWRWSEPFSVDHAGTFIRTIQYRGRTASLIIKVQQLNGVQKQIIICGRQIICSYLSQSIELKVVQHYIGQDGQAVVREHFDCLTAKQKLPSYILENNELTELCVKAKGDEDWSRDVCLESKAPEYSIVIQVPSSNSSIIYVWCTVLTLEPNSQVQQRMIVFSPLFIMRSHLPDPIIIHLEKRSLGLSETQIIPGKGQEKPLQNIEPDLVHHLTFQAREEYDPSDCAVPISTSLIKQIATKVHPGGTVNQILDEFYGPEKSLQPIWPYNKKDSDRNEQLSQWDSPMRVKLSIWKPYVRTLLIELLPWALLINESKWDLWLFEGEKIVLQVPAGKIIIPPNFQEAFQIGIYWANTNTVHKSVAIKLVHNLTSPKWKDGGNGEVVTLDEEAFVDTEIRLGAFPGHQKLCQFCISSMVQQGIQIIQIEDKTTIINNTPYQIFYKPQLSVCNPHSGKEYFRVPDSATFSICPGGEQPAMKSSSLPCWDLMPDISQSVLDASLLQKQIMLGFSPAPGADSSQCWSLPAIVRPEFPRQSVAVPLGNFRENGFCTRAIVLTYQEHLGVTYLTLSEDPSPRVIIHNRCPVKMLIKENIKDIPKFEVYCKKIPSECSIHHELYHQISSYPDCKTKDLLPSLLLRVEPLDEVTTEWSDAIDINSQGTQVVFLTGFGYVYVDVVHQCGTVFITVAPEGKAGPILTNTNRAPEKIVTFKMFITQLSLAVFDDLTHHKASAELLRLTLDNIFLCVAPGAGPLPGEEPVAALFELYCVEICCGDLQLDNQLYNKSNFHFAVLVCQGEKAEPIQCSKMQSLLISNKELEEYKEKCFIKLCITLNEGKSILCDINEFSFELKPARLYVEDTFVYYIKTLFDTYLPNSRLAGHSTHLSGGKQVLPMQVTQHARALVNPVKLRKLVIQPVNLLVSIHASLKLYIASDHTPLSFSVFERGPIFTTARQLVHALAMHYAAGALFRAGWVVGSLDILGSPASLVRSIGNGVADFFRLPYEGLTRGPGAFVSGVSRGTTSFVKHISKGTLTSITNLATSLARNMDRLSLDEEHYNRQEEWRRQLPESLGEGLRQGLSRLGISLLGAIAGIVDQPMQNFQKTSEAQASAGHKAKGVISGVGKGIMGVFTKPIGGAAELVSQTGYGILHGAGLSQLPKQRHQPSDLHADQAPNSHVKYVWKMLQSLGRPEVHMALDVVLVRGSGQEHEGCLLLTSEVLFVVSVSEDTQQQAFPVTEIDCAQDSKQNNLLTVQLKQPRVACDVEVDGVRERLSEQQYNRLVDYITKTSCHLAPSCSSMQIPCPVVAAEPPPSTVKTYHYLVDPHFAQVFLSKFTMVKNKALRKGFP
UniProt Q86VN1: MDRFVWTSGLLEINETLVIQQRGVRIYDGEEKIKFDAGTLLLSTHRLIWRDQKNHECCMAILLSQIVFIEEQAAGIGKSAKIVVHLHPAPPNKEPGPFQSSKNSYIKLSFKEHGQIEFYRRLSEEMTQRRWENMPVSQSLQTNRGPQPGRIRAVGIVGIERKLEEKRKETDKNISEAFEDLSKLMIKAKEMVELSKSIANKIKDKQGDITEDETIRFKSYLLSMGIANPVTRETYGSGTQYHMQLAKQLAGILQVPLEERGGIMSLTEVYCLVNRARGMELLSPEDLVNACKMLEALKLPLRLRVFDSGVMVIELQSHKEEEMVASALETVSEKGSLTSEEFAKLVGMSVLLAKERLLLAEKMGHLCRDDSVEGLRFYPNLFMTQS
UniProt Q9BTA9: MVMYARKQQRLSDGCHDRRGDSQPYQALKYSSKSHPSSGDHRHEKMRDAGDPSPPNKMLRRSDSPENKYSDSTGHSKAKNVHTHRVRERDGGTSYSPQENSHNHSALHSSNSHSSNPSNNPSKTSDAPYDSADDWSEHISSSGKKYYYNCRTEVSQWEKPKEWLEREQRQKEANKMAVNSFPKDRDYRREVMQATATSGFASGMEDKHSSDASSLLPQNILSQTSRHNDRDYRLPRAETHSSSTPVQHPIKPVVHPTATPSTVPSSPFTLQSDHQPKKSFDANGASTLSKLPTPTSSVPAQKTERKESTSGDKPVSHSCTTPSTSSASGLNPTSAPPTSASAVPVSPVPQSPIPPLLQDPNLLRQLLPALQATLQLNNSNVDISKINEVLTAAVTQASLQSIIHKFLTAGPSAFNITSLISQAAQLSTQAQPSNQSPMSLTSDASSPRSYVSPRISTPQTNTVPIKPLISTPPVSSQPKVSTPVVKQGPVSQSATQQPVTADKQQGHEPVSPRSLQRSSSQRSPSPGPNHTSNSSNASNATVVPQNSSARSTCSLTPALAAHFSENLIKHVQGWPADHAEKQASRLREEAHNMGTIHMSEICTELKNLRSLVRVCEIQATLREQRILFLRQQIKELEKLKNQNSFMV

How the values were obtained:
Experiment in all cases: log2 fold change, soluble protein after heating vs DMSO (PISA); higher = thermal stabilisation; K562 lysate, 10 uM; active = over 0.2 and 3.5 SD of the protein, either way, in both replicates (recomputed)
alvocidib = compound: CN1CC[C@H](c2c(O)cc(O)c3c(=O)cc(-c4ccccc4Cl)oc23)[C@H](O)C1 [alvocidib]
How it was run: (§1)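 K562 pellets were dounce-homogenised in PBS pH 7.4 containing 1 mM MgCl2, and the crude extract, at 1 mg/mL protein, was exposed to 10 μM compound for 30 min. Aliquots were heated for 3 min across 48°C-58°C, pooled, brought to 0.5% NP-40 at 4°C and spun at 21,000xg for 90 min, with the supernatant taken as soluble protein. TMTpro 16plex LC-MS/MS with equalised channel sums quantified that protein. Values are log-two fold changes in thermal stability relative to solvent controls, taken from duplicates.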

Tubastatin A = compound: CN1CCc2c(c3ccccc3n2Cc2ccc(C(=O)NO)cc2)C1 [Tubastatin A]
How it was run: as §1

[1] = compound: CNC(=O)C1=CC=CC=C1NC2=NC(=NC=C2Cl)NC3=C(C=C(C=C3)N4CCOCC4)OC
How it was run: as §1

defactinib = compound: CNC(=O)c1ccc(Nc2ncc(C(F)(F)F)c(NCc3nccnc3N(C)S(C)(=O)=O)n2)cc1 [defactinib]
How it was run: as §1

[2] = compound: CNc1nc(-c2ccc3c(N)n[nH]c3c2)cc(N2C[C@@H](C(=O)NC3CCCCC3)CC[C@H]2C)n1
How it was run: as §1

encorafenib = compound: COC(=O)N[C@@H](C)CNc1nccc(-c2cn(C(C)C)nc2-c2cc(Cl)cc(NS(C)(=O)=O)c2F)n1 [encorafenib]
How it was run: as §1

[3] = compound: COC(=O)[C@H](CCSC)NC(=O)C1=C(C=C(C=C1)NC[C@H](CS)N)C2=CC=CC=C2
How it was run: as §1

alisertib = compound: COc1cc(Nc2ncc3c(n2)-c2ccc(Cl)cc2C(c2c(F)cccc2OC)=NC3)ccc1C(=O)O [alisertib]
How it was run: as §1

[4] = compound: COc1cc2nc(-c3cc(F)ccc3O)nc(N[C@@H]3CNC[C@H]3C(C)(C)O)c2cc1OC
How it was run: as §1

gefitinib = compound: COc1cc2ncnc(Nc3ccc(F)c(Cl)c3)c2cc1OCCCN1CCOCC1 [gefitinib]
How it was run: as §1

Measured: log2 fold change

WDR3 (UniProt Q9UNX4)
inactive: alvocidib 0.008 | Tubastatin A -0.099 | [1] -0.013 | defactinib 0.031 | [2] -0.048 | encorafenib -0.008 | [3] 0.046 | alisertib 0.03 | [4] -0.007 | gefitinib -0.01

XK (UniProt P51811)
inactive: alvocidib -0.006 | Tubastatin A -0.008 | [1] -0.048 | [2] 0.145 | encorafenib -0.08 | [3] 0.005 | alisertib -0.161 | [4] 0 | gefitinib 0.082

WDR12 (UniProt Q9GZL7)
inactive: alvocidib 0 | Tubastatin A -0.023 | [1] -0.01 | defactinib -0.014 | [2] 0.008 | encorafenib -0.012 | [3] 0 | alisertib 0.024 | [4] 0.016 | gefitinib 0.023

VPS13B (UniProt Q7Z7G8)
inactive: alvocidib -0.125 | Tubastatin A 0.005 | [1] 0.073 | defactinib -0.062 | [2] 0.05 | encorafenib 0.118 | [3] -0.01 | alisertib -0.008 | [4] 0.058 | gefitinib 0.048

VPS36 (UniProt Q86VN1)
inactive: alvocidib 0 | Tubastatin A 0.009 | [1] -0.019 | defactinib 0.019 | [2] 0.005 | encorafenib -0.005 | [3] 0.012 | alisertib -0.006 | [4] -0.016 | gefitinib 0.008

WRAP53 (UniProt Q9BUR4)
inactive: alvocidib -0.073 | Tubastatin A -0.022 | [1] -0.016 | defactinib -0.05 | [2] 0.093 | encorafenib -0.045 | [3] 0.002 | alisertib 0.071 | [4] -0.031 | gefitinib -0.006

Reprinted from above (3 entries):
VPS13B (UniProt Q7Z7G8)
inactive: alvocidib -0.125 | Tubastatin A 0.005 | [1] 0.073 | defactinib -0.062 | [2] 0.05 | encorafenib 0.118 | [3] -0.01 | alisertib -0.008 | [4] 0.058 | gefitinib 0.048

VPS36 (UniProt Q86VN1)
inactive: alvocidib 0 | Tubastatin A 0.009 | [1] -0.019 | defactinib 0.019 | [2] 0.005 | encorafenib -0.005 | [3] 0.012 | alisertib -0.006 | [4] -0.016 | gefitinib 0.008

WRAP53 (UniProt Q9BUR4)
inactive: alvocidib -0.073 | Tubastatin A -0.022 | [1] -0.016 | defactinib -0.05 | [2] 0.093 | encorafenib -0.045 | [3] 0.002 | alisertib 0.071 | [4] -0.031 | gefitinib -0.006

Later entries

VTI1B (UniProt Q9UEU0)
inactive: alvocidib -0.05 | Tubastatin A -0.019 | [1] 0.032 | [2] 0.052 | encorafenib 0.058 | [3] 0.017 | alisertib -0.087 | [4] 0.021 | gefitinib 0.009

WDR54 isoform 4 (UniProt Q9H977)
inactive: alvocidib 0.033 | defactinib -0.071 | [2] -0.019 | encorafenib 0.08 | [3] 0.109

VPS26A (UniProt O75436)
inactive: alvocidib 0.001 | Tubastatin A 0.016 | [1] -0.007 | defactinib -0.001 | [2] 0.018 | encorafenib -0.001 | [3] -0.003 | alisertib 0.006 | [4] 0.021 | gefitinib 0.012

WIPI1 (UniProt Q5MNZ9)
inactive: alvocidib -0.046 | Tubastatin A 0.013 | [1] 0.036 | [2] 0.099 | encorafenib -0.009 | [3] 0.029 | alisertib -0.189 | [4] 0.008 | gefitinib -0.017

WDR53 (UniProt Q7Z5U6)
inactive: alvocidib -0.024 | Tubastatin A 0.062 | [1] 0.065 | defactinib 0.115 | [2] 0.226 | encorafenib 0.011 | [3] -0.044 | alisertib 0.111 | gefitinib -0.232

XBP1 isoform 2 (UniProt P17861)
inactive: Tubastatin A -0.513 | [1] 0.112

WARS1 (UniProt G3V277)
inactive: defactinib -0.168 | encorafenib -0.103 | [3] -0.011

WDR35 (UniProt Q9P2L0)
inactive: Tubastatin A 0.031

WAC isoform 5 (UniProt Q9BTA9)
inactive: Tubastatin A -0.119 | [1] -0.359 | [2] -0.117

WDYHV1 (UniProt Q96HA8)
inactive: Tubastatin A -0.103 | [1] 0.095 | defactinib -0.014 | [2] -0.063 | encorafenib -0.025 | [3] 0.22 | alisertib -0.086 | [4] -0.015 | gefitinib 0.095
